# Measured values: PubChem BioAssay AID2685 (National Center for Advancing Translational Sciences (NCATS), 2010)
# The list shows a part of the results. The main result of the screen is listed elsewhere. These columns were measured beside it and carry no call. Compounds called inactive in the main read-out are mostly missing here. Words in brackets tell the shape of the fitted curve; partial curves, single points and poor fits give uncertain potencies.
# Assay: qHTS Assay for Lipid Storage Modulators in Drosophila S3 Cells;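 as to cell number change: cells counted by Cell Tracker Red CMTPX staining in the red channel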
# Details: BODIPY lipid droplet fluorescence, 18-24 h; for cell number change: measured here: cell count max response, cells fed with added oleic acid
# Procedure, shortened: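 Laser-scanning cytometry quantifies lipid droplet accumulation (500–530 nm total intensity; droplet/cell object ratio) in oleic acid-fed (400 uM added) Drosophila S3 cells treated with a concentration series. 20 uM Triacsin C defined 100% inhibition.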
# [1] = measured here: lipid fluorescence (Fed channel) AC50, cells fed with added oleic acid
# [2] = measured here: cell number channel AC50, cells fed with added oleic acid
structure (smiles),measurement,setting,value
CCC(=O)NC(c1cccs1)c1cc(Cl)c2ccccc2c1O (centres undefined),cell number change,,14.9%
same,AC50,[1],"0.411 µM [falling, partial curve]"
O=C(CN1CCN(c2ccccc2F)CC1)Nc1ccccc1F,cell number change,,-4.07%
same,AC50,[2],"6.51 µM [falling, single point]"
O=C(OCc1ccccc1F)c1cc2ccccc2cc1O,cell number change,,13.5%
CC1(C)C2CCC1(C)C(OCCNCCOC(=O)Nc1ccccc1)C2 (centres undefined),cell number change,,-58.7%
same,AC50,[1],"29.1 µM [falling, single point]"
O=C(COC(=O)c1ccccc1NS(=O)(=O)c1cc([N+](=O)[O-])ccc1Cl)c1ccccc1,cell number change,,-35.7%
same,AC50,[1],"20.6 µM [falling, single point]"
CCOC(=O)c1sc(NC(=O)CSc2nnnn2-c2ccc(C)cc2C)nc1C,cell number change,,27.4%
same,AC50,[2],"0.082 µM [rising, full curve, poor fit]"
N#CC1=C(N)OC2=C(C(=O)CC(c3ccccc3)C2)C1c1cccnc1 (centres undefined),cell number change,,-8.6%
same,AC50,[1],"5.17 µM [rising, partial curve]"
Cc1cccc(NC(=O)COc2coc(CN3CCN(c4ccccc4)CC3)cc2=O)c1C,cell number change,,-50%
same,AC50,[2],"8.2 µM [falling, partial curve, poor fit]"
O=C(NCCC1=CCCCC1)C1CCN(Cc2cnn(-c3ccccc3)c2-n2cccc2)CC1,cell number change,,1.96%
same,AC50,[2],"0.206 µM [falling, full curve, poor fit]"
same,AC50,[1],"0.731 µM [falling, full curve, poor fit]"
CCc1ccc(NC(=O)CSc2ccc(-c3cccnc3)nn2)cc1,cell number change,,35.7%
same,AC50,[1],"0.708 µM [rising, full curve, poor fit]"
N/C(=N\OC(=O)c1ccc(Cl)cc1Cl)c1cccnc1,cell number change,,23.3%
same,AC50,[1],"4.61 µM [rising, partial curve]"
CCC(NC(=O)Nc1ccc(O)cc1)(C(F)(F)F)C(F)(F)F,cell number change,,-21%
same,AC50,[1],"1.84 µM [falling, full curve, poor fit]"
O=C(NCCCn1cccn1)C1CCC(=O)N(CCc2ccccc2)C1 (centres undefined),cell number change,,45.9%
same,AC50,[2],"4.61 µM [rising, partial curve]"
O=C(CN1CCOCC1)Nc1ccc2c(c1)OC(F)(F)O2,cell number change,,-16.5%
same,AC50,[1],"3.26 µM [falling, full curve, poor fit]"
CC1CCCCC1NC(=O)c1cccc(S(=O)(=O)N2CCN(Cc3ccccc3)CC2)c1 (centres undefined),AC50,[2],"1.64 µM [falling, partial curve]"
same,AC50,[1],"0.731 µM [rising, single point]"
COc1ccc(C)cc1NC(=O)C(c1ccccc1)N1CCN(CC(=O)N2CCOCC2)CC1 (centres undefined),AC50,[2],"6.51 µM [rising, single point]"
same,AC50,[1],"6.51 µM [rising, single point]"
Cc1nc2ccccn2c1-c1ccnc(=S)[nH]1,cell number change,,15.9%
same,AC50,[2],"6.51 µM [rising, single point]"
same,AC50,[1],"4.11 µM [rising, partial curve]"
Cc1ccc2c(c1)C(c1ccccc1)N(C(=O)c1ccc(F)cc1)CC(=O)N2 (centres undefined),cell number change,,18%
same,AC50,[1],"4.61 µM [rising, partial curve, poor fit]"
Cc1ccc(-n2nc3c(c2NC(=O)c2cccs2)CS(=O)(=O)C3)c(C)c1,cell number change,,28.7%
CCCCCC(=O)Nc1cccc(C2=NOC3(C2)C[C@@H](C(N)=O)N(C(=O)c2ccc(OC)cc2)C3)c1 (some centres undefined),cell number change,,25.2%
same,AC50,[1],"13 µM [rising, single point]"
CN(C)c1ccc(/C=N/NC(=O)CNC(=O)c2ccncc2)cc1,cell number change,,11.2%
same,AC50,[2],"3.66 µM [rising, partial curve, poor fit]"
same,AC50,[1],"4.61 µM [rising, partial curve, poor fit]"
COc1ccc(NC(=O)COc2ccc(C(=O)OCC(=O)N(C)C3CCS(=O)(=O)C3)cc2OC)cc1 (centres undefined),cell number change,,35.7%
same,AC50,[2],"9.2 µM [rising, partial curve, poor fit]"
same,AC50,[1],"29.1 µM [rising, single point]"
N#Cc1c(Oc2ccc3ccccc3c2)sc(C(=O)c2ccccc2)c1N,cell number change,,-4.58%
same,AC50,[1],"7.31 µM [falling, single point]"
CC(O)Cn1nc([N+](=O)[O-])nc1N (centres undefined),cell number change,,28.3%
COc1cccc(C(C#N)N2CCOCC2)c1 (centres undefined),cell number change,,-51.7%
same,AC50,[1],"2.06 µM [rising, partial curve]"
NS(=O)(=O)c1ccc(O)c(NC(=O)c2ccc([N+](=O)[O-])cc2)c1,cell number change,,-58%
same,AC50,[2],"18.4 µM [falling, single point]"
CCOC(=O)c1c(C)[nH]c(C)c1S(=O)(=O)NCC1CCN(Cc2cccc(F)c2)CC1,cell number change,,-6.65%
same,AC50,[1],"29.1 µM [rising, single point]"
CCOC(=O)c1ccccc1NC(=O)c1ccccc1NS(C)(=O)=O,cell number change,,1.65%
same,AC50,[1],"5.17 µM [rising, single point]"
Cn1nc(-c2ccccc2)c(-c2nc(-c3cccc(C(F)(F)F)c3)no2)c1Cl,cell number change,,49.8%
same,AC50,[2],"0.731 µM [rising, full curve]"
same,AC50,[1],"1.03 µM [rising, full curve]"
Cc1nnc(C)n1/N=C/c1ccc(-c2ccccc2Cl)o1,cell number change,,3.75%
same,AC50,[1],"7.31 µM [rising, single point]"
C=CCn1c(SCC(=O)NCC2CCCO2)nnc1-c1ccncc1 (centres undefined),cell number change,,-3.24%
C(=N/Nc1cc(N2CCOCC2)nc(N2CCOCC2)n1)/c1ccccc1,cell number change,,19.1%
same,AC50,[1],"20.6 µM [rising, single point]"
c1cn(CCCNc2ncnc3sc4c(c23)CCC4)cn1,cell number change,,-3.84%
same,AC50,[1],"0.116 µM [rising, full curve, poor fit]"
CCC1CN(C(=O)NCc2ccccc2)c2cc(Cl)ccc2O1 (centres undefined),cell number change,,5.67%
same,AC50,[1],"0.116 µM [falling, full curve, poor fit]"
COc1ccc(CNC(=O)Nc2cccc(C(F)(F)F)c2)cc1OC,cell number change,,-7.89%
same,AC50,[1],"6.51 µM [falling, single point]"
CCOC(=O)NC(Nc1nc2ccccc2s1)(C(=O)OCC)C(F)(F)F (centres undefined),cell number change,,-7.3%
CNC(=O)CSCc1cnn(-c2ccccc2)c1-n1cccc1,cell number change,,11.8%
same,AC50,[1],"0.0058 µM [rising, full curve, poor fit]"

# Reprinted at random: four records from the list
structure (smiles),measurement,setting,value
O=C(COC(=O)c1ccccc1NS(=O)(=O)c1cc([N+](=O)[O-])ccc1Cl)c1ccccc1,cell number change,,-35.7%
CCOC(=O)NC(Nc1nc2ccccc2s1)(C(=O)OCC)C(F)(F)F (centres undefined),cell number change,,-7.3%
CCC1CN(C(=O)NCc2ccccc2)c2cc(Cl)ccc2O1 (centres undefined),cell number change,,5.67%
COc1ccc(C)cc1NC(=O)C(c1ccccc1)N1CCN(CC(=O)N2CCOCC2)CC1 (centres undefined),AC50,[2],"6.51 µM [rising, single point]"
